{
  "sequences": {"note": "Sequences of proteins named here, by UniProt entry; tags and fusion partners are left off. A change or cut given only in a name is not applied to a line headed by its entry.", "UniProt P05198, whole entry, looked up": "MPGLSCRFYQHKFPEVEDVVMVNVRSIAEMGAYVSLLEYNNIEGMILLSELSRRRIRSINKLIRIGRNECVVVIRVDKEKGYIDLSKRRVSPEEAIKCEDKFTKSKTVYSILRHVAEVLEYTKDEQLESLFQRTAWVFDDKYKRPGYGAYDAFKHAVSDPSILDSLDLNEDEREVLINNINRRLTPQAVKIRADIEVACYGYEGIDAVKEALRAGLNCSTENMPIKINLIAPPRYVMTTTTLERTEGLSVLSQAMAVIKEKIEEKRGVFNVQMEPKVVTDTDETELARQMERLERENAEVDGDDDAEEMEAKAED", "UniProt Q9H8V3": "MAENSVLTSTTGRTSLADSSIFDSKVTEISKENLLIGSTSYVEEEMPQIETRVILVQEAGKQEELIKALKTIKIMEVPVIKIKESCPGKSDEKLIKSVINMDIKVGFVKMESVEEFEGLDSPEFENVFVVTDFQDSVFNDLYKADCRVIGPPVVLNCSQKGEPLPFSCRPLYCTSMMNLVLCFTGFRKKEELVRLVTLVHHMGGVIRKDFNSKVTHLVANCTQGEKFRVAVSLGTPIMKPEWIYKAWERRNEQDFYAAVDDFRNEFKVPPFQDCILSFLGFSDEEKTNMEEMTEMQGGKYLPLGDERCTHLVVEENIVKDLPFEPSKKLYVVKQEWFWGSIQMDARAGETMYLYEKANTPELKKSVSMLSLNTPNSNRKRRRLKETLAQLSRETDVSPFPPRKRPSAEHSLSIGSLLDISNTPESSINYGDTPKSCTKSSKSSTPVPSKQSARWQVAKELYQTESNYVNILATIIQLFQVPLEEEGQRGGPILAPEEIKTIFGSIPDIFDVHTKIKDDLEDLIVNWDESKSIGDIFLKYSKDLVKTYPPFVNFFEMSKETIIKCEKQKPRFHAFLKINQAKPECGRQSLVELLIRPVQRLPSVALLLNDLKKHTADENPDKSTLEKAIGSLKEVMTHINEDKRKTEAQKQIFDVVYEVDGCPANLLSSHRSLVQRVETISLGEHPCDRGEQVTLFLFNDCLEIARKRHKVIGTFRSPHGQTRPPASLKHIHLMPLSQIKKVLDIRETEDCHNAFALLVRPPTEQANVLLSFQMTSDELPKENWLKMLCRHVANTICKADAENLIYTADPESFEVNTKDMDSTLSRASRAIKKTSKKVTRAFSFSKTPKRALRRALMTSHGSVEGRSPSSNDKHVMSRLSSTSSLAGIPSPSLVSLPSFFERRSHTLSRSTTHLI", "UniProt O75530, whole entry, looked up": "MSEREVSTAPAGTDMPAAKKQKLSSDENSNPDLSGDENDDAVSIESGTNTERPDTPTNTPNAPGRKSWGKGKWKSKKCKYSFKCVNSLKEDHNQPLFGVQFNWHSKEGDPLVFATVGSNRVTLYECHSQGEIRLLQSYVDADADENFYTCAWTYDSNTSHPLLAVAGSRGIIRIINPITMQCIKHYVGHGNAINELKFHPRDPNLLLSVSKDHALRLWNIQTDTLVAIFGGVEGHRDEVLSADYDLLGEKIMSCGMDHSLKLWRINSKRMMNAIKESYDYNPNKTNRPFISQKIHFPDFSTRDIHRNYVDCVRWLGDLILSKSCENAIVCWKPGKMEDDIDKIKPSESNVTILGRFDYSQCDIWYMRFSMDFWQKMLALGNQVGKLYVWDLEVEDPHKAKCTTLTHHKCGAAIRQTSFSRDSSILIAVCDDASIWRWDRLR", "UniProt Q9BY44": "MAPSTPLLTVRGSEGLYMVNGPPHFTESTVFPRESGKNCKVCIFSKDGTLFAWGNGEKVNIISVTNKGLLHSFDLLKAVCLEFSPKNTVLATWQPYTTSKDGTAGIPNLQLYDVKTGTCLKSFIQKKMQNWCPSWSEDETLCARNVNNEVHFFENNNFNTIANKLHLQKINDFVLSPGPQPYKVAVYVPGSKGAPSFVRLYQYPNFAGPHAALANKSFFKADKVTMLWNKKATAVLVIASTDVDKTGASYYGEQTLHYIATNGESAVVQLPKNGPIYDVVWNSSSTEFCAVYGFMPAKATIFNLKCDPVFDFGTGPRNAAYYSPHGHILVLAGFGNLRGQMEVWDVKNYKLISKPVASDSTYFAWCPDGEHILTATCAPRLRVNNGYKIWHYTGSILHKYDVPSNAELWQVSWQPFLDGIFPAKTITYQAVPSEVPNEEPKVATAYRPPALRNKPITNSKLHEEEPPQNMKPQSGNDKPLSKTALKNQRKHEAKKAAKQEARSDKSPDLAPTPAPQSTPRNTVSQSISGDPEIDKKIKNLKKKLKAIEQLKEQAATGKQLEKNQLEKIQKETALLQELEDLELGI", "UniProt P41091, whole entry, looked up": "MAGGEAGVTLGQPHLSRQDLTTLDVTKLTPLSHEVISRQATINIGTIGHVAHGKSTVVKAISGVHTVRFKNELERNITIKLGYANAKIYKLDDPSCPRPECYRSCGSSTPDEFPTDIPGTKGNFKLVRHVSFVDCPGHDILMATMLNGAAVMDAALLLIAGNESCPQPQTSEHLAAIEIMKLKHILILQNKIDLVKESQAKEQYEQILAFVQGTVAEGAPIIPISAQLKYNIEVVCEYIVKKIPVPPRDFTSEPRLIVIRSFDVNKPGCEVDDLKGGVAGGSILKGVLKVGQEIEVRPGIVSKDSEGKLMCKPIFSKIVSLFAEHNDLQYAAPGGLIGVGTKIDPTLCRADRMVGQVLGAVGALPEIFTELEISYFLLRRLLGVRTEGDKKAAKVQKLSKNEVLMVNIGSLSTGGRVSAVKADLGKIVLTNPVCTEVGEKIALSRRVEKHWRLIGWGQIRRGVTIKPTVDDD", "UniProt P30084": "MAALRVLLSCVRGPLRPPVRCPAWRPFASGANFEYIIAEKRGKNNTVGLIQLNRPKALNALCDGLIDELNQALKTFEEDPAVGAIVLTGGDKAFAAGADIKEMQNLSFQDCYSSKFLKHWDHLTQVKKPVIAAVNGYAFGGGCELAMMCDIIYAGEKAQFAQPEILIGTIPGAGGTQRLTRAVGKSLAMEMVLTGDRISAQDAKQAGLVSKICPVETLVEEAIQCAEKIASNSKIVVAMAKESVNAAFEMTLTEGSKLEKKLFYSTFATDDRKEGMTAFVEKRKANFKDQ", "UniProt Q6P2E9": "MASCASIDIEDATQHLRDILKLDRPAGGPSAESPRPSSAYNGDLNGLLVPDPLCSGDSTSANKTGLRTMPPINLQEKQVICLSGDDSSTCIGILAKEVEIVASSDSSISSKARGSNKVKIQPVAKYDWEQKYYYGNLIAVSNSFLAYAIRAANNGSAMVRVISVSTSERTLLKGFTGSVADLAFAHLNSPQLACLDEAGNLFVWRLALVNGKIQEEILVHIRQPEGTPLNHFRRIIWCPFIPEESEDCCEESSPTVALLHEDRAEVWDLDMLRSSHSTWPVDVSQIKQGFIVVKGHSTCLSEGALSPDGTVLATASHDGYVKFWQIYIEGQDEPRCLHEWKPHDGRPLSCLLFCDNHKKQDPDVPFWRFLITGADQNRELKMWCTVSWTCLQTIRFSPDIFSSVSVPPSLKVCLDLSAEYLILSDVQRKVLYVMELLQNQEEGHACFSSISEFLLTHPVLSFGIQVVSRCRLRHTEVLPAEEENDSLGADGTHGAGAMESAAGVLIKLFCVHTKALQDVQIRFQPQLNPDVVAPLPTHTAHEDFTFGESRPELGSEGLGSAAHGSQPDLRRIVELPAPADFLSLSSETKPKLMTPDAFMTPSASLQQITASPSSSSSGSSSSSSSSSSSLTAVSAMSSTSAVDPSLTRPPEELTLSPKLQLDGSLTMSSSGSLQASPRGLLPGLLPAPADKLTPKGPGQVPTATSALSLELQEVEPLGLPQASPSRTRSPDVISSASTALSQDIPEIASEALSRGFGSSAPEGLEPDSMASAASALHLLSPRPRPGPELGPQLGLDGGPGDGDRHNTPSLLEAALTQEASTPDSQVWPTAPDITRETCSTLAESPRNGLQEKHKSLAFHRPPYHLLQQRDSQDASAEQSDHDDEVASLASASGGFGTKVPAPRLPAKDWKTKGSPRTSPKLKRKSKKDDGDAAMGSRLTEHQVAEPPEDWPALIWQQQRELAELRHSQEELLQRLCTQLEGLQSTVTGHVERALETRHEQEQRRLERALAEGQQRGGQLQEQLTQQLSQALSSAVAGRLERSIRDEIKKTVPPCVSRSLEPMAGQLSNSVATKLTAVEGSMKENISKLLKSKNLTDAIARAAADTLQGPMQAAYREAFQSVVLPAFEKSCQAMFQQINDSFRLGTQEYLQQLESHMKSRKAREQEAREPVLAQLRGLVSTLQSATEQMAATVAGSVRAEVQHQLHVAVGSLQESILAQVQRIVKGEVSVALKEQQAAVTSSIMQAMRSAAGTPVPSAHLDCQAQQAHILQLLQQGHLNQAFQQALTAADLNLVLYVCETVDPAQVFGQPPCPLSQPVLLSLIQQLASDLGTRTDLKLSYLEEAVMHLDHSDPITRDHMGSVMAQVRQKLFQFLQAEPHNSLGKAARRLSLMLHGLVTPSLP", "UniProt Q92611": "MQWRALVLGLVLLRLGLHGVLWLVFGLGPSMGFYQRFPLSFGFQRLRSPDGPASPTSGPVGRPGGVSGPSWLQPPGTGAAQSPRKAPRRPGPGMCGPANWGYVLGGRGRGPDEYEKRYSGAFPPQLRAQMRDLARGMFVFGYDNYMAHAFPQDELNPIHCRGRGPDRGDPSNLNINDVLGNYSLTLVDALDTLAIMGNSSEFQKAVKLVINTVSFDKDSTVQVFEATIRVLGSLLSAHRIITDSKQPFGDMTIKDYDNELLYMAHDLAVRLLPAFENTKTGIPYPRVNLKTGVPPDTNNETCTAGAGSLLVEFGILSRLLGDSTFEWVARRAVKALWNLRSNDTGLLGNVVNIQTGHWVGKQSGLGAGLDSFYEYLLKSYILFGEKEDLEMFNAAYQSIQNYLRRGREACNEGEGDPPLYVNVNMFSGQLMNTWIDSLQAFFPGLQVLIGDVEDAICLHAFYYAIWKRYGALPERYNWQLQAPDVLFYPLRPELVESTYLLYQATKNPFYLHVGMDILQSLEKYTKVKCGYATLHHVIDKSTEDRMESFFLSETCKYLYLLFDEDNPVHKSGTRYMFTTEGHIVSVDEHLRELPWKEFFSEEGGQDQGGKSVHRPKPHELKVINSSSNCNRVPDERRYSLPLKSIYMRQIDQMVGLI", "UniProt Q9NR50": "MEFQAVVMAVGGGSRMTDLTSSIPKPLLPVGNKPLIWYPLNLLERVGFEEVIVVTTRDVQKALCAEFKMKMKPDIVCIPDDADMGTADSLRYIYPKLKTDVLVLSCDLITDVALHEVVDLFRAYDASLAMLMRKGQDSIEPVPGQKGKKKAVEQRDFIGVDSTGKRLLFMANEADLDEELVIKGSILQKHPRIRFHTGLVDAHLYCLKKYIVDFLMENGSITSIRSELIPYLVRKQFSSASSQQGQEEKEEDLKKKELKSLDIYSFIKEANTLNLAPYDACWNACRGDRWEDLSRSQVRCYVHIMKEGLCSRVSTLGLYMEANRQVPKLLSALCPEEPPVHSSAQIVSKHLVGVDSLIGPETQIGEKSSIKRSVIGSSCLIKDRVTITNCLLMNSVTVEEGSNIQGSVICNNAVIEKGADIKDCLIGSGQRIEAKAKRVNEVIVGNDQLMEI", "UniProt P41214": "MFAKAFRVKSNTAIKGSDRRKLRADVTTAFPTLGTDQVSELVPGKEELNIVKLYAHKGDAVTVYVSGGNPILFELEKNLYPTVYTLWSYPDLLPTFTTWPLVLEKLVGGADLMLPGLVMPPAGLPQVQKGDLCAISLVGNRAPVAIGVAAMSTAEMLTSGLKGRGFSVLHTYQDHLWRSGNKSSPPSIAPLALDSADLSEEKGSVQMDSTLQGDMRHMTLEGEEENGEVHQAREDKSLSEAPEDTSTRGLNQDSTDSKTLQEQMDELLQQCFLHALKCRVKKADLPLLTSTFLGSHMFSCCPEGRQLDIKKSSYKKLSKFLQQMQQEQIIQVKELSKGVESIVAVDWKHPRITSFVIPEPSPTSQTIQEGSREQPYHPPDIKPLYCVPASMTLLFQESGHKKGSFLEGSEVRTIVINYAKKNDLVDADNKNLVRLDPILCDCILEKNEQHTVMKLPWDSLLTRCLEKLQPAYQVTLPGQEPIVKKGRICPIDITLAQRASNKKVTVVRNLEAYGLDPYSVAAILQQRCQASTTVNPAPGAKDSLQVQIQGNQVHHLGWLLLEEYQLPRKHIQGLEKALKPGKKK", "UniProt P68104, whole entry, looked up": "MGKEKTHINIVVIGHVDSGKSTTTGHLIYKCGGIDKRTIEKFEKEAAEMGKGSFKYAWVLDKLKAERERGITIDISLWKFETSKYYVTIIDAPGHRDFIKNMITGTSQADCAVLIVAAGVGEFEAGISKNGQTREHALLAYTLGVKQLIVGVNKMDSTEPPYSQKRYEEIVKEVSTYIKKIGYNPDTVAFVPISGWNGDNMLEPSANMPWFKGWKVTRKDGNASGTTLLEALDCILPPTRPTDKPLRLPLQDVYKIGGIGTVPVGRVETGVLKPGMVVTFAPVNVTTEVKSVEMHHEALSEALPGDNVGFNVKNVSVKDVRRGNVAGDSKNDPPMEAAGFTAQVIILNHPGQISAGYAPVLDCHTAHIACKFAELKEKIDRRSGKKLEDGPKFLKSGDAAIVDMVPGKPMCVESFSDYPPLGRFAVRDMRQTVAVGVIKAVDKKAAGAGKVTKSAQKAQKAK"},
  "source": "the supplement of paper PMC12067093",
  "about": "“Discovery and optimisation of a covalent ligand for TRIM25 and its application to targeted protein ubiquitination” (Chemical Science, 2025)",
  "note": "The other results are listed elsewhere or left out.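 Also: competitive profiling in live THP-1 cells: cysteine peptides tagged with an iodoacetamide desthiobiotin (IA-DTB) probe, intensity after compound treatment relative to DMSO-treated cells.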",
  "data": [
    {"compound": "Cc1cc(ccc1-c1ccccc1)C(=O)N1CCCN(CC1)C(=O)CCl [compound 10]", "test": "probe-labelled cysteine peptide fold change vs DMSO (competition) (log2 fold change); higher = less target engagement (more negative = stronger competition)", "details": "10 µM; THP-1; incubation time: 4 h", "values": [
      {"target": "EIF2S1_P05198_70_NECVVVIRVDK (UniProt P05198)", "probe-labelled cysteine peptide fold change": -0.0302},
      {"target": "EFL1_Q7Z2Z2_124_ICDGCIIVVDAVEGVCPQTQAVLR (UniProt Q7Z2Z2)", "probe-labelled cysteine peptide fold change": -0.526},
      {"target": "ECT2_Q9H8V3_686_VETISLGEHPCDR (UniProt Q9H8V3)", "probe-labelled cysteine peptide fold change": 0.0694},
      {"target": "EGLN1_Q9GZT9_201_LALEYIVPCMNK (UniProt Q9GZT9)", "probe-labelled cysteine peptide fold change": -0.0652},
      {"target": "EED_O75530_361_FDYSQCDIWYMR (UniProt O75530)", "probe-labelled cysteine peptide fold change": 0.106},
      {"target": "EIF2S1_P05198_98_VSPEEAIKCEDK (UniProt P05198)", "probe-labelled cysteine peptide fold change": -0.267},
      {"target": "EHMT2_Q96KQ7_497_HHCCPGCGYFCTAGTFLECHPDFR (UniProt Q96KQ7)", "probe-labelled cysteine peptide fold change": -0.181},
      {"target": "EED_O75530_324+330_SCENAIVCWKPGK (UniProt O75530)", "probe-labelled cysteine peptide fold change": 0.00621},
      {"target": "EIF2A_Q9BY44_306_CDPVFDFGTGPR (UniProt Q9BY44)", "probe-labelled cysteine peptide fold change": 0.127},
      {"target": "EFTUD2_Q15029_166_RYDQDLCYTDILFTEQER (UniProt Q15029)", "probe-labelled cysteine peptide fold change": -0.0828},
      {"target": "EED_O75530_182_IINPITMQCIK (UniProt O75530)", "probe-labelled cysteine peptide fold change": -0.0539},
      {"target": "EIF2S3_P41091_96_LDDPSCPRPECYR (UniProt P41091)", "probe-labelled cysteine peptide fold change": -0.123},
      {"target": "EHMT2_Q96KQ7_866_ESYHDCVLLFLSR (UniProt Q96KQ7)", "probe-labelled cysteine peptide fold change": 0.156},
      {"target": "ECM1_Q16610_151_EGTPAPFGDQSHPEPESWNAAQHCQQDR (UniProt Q16610)", "probe-labelled cysteine peptide fold change": -0.414},
      {"target": "EEF2_P13639_557_SDPMVQCIIEESGEHIIAGAGELHLEICLK (UniProt P13639)", "probe-labelled cysteine peptide fold change": -0.0759},
      {"target": "EHMT2_Q96KQ7_957_YISENCETSTMNIDR (UniProt Q96KQ7)", "probe-labelled cysteine peptide fold change": -0.21},
      {"target": "EFL1_Q7Z2Z2_474_LAAAQGQAPLEPTQDGSAIETCPK (UniProt Q7Z2Z2)", "probe-labelled cysteine peptide fold change": -0.111},
      {"target": "EIF2B1_Q14232_115_IADLCHTFIK (UniProt Q14232)", "probe-labelled cysteine peptide fold change": 0.0225},
      {"target": "EFTUD2_Q15029_476_IEHTYTGGVDSDLGEAMSDCDPDGPLMCHTTK (UniProt Q15029)", "probe-labelled cysteine peptide fold change": -0.27},
      {"target": "ECHS1_P30084_213_ICPVETLVEEAIQCAEK (UniProt P30084)", "probe-labelled cysteine peptide fold change": -0.0143},
      {"target": "ECPAS_Q5VYK3_602_MCLAHSAGVVPTSQSLADMQDHAPAIGR (UniProt Q5VYK3)", "probe-labelled cysteine peptide fold change": -0.389},
      {"target": "EIF2S1_P05198_70_NECVVVIR (UniProt P05198)", "probe-labelled cysteine peptide fold change": 0.116},
      {"target": "EDC4_Q6P2E9_510_LFCVHTK (UniProt Q6P2E9)", "probe-labelled cysteine peptide fold change": 0.155},
      {"target": "EIF2S1_P05198_199_ADIEVACYGYEGIDAVK (UniProt P05198)", "probe-labelled cysteine peptide fold change": -0.0299},
      {"target": "EDEM1_Q92611_95_RPGPGMCGPANWGYVLGGR (UniProt Q92611)", "probe-labelled cysteine peptide fold change": -0.0266},
      {"target": "EIF2B3_Q9NR50_300_CYVHIMK (UniProt Q9NR50)", "probe-labelled cysteine peptide fold change": -0.00138},
      {"target": "EEF1G_P26641_266_AAAPAPEEEMDECEQALAAEPK (UniProt P26641)", "probe-labelled cysteine peptide fold change": -0.0104},
      {"target": "EIF2D_P41214_301_ADLPLLTSTFLGSHMFSCCPEGR (UniProt P41214)", "probe-labelled cysteine peptide fold change": 0.198},
      {"target": "EIF3B_P55884_302_YWLEEAECR (UniProt P55884)", "probe-labelled cysteine peptide fold change": 0.164},
      {"target": "EHHADH_Q08426_566_YCPIPDVLCELGR (UniProt Q08426)", "probe-labelled cysteine peptide fold change": -0.206},
      {"target": "EEF2_P13639_41_STLTDSLVCK (UniProt P13639)", "probe-labelled cysteine peptide fold change": -0.117},
      {"target": "EFTUD2_Q15029_639_SYPSLTTKVEESGEHVILGTGELYLDCVMHDLRK (UniProt Q15029)", "probe-labelled cysteine peptide fold change": -0.296},
      {"target": "EHMT2_Q96KQ7_1170_YFTCQCGSEK (UniProt Q96KQ7)", "probe-labelled cysteine peptide fold change": 0.269},
      {"target": "ECPAS_Q5VYK3_1183_ESSCLALNDLLR (UniProt Q5VYK3)", "probe-labelled cysteine peptide fold change": -0.235},
      {"target": "EEF1A1_P68104_234_KDGNASGTTLLEALDCILPPTR (UniProt P68104)", "probe-labelled cysteine peptide fold change": -0.0469}
    ]},
    {"compound": "Cc1cc(ccc1-c1ccccc1)C(=O)N1CCCN(CC1)C(=O)CCl [compound 10]", "test": "probe-labelled cysteine peptide fold change vs DMSO (competition) (log2 fold change); higher = less target engagement (more negative = stronger competition)", "details": "50 µM; THP-1; incubation time: 4 h", "values": [
      {"target": "EIF2S1_P05198_70_NECVVVIRVDK (UniProt P05198)", "probe-labelled cysteine peptide fold change": -0.409},
      {"target": "EFL1_Q7Z2Z2_124_ICDGCIIVVDAVEGVCPQTQAVLR (UniProt Q7Z2Z2)", "probe-labelled cysteine peptide fold change": -0.04},
      {"target": "ECT2_Q9H8V3_686_VETISLGEHPCDR (UniProt Q9H8V3)", "probe-labelled cysteine peptide fold change": -0.0551},
      {"target": "EGLN1_Q9GZT9_201_LALEYIVPCMNK (UniProt Q9GZT9)", "probe-labelled cysteine peptide fold change": -0.18},
      {"target": "EED_O75530_361_FDYSQCDIWYMR (UniProt O75530)", "probe-labelled cysteine peptide fold change": 0.468},
      {"target": "EIF2S1_P05198_98_VSPEEAIKCEDK (UniProt P05198)", "probe-labelled cysteine peptide fold change": -1.12},
      {"target": "EHMT2_Q96KQ7_497_HHCCPGCGYFCTAGTFLECHPDFR (UniProt Q96KQ7)", "probe-labelled cysteine peptide fold change": -0.0725},
      {"target": "EED_O75530_324+330_SCENAIVCWKPGK (UniProt O75530)", "probe-labelled cysteine peptide fold change": -0.302},
      {"target": "EIF2A_Q9BY44_306_CDPVFDFGTGPR (UniProt Q9BY44)", "probe-labelled cysteine peptide fold change": 0.176},
      {"target": "EFTUD2_Q15029_166_RYDQDLCYTDILFTEQER (UniProt Q15029)", "probe-labelled cysteine peptide fold change": -0.161},
      {"target": "EED_O75530_182_IINPITMQCIK (UniProt O75530)", "probe-labelled cysteine peptide fold change": -0.0919},
      {"target": "EIF2S3_P41091_96_LDDPSCPRPECYR (UniProt P41091)", "probe-labelled cysteine peptide fold change": 0.265},
      {"target": "EHMT2_Q96KQ7_866_ESYHDCVLLFLSR (UniProt Q96KQ7)", "probe-labelled cysteine peptide fold change": 0.221},
      {"target": "ECM1_Q16610_151_EGTPAPFGDQSHPEPESWNAAQHCQQDR (UniProt Q16610)", "probe-labelled cysteine peptide fold change": -0.242},
      {"target": "EEF2_P13639_557_SDPMVQCIIEESGEHIIAGAGELHLEICLK (UniProt P13639)", "probe-labelled cysteine peptide fold change": -0.0904},
      {"target": "EHMT2_Q96KQ7_957_YISENCETSTMNIDR (UniProt Q96KQ7)", "probe-labelled cysteine peptide fold change": -0.0775},
      {"target": "EFL1_Q7Z2Z2_474_LAAAQGQAPLEPTQDGSAIETCPK (UniProt Q7Z2Z2)", "probe-labelled cysteine peptide fold change": -0.0536},
      {"target": "EIF2B1_Q14232_115_IADLCHTFIK (UniProt Q14232)", "probe-labelled cysteine peptide fold change": 0.106},
      {"target": "EFTUD2_Q15029_476_IEHTYTGGVDSDLGEAMSDCDPDGPLMCHTTK (UniProt Q15029)", "probe-labelled cysteine peptide fold change": -0.276},
      {"target": "ECHS1_P30084_213_ICPVETLVEEAIQCAEK (UniProt P30084)", "probe-labelled cysteine peptide fold change": 0.0446},
      {"target": "ECPAS_Q5VYK3_602_MCLAHSAGVVPTSQSLADMQDHAPAIGR (UniProt Q5VYK3)", "probe-labelled cysteine peptide fold change": 0.116},
      {"target": "EIF2S1_P05198_70_NECVVVIR (UniProt P05198)", "probe-labelled cysteine peptide fold change": 0.42},
      {"target": "EDC4_Q6P2E9_510_LFCVHTK (UniProt Q6P2E9)", "probe-labelled cysteine peptide fold change": 0.106},
      {"target": "EIF2S1_P05198_199_ADIEVACYGYEGIDAVK (UniProt P05198)", "probe-labelled cysteine peptide fold change": 0.126},
      {"target": "EDEM1_Q92611_95_RPGPGMCGPANWGYVLGGR (UniProt Q92611)", "probe-labelled cysteine peptide fold change": -0.127},
      {"target": "EIF2B3_Q9NR50_300_CYVHIMK (UniProt Q9NR50)", "probe-labelled cysteine peptide fold change": 0.109},
      {"target": "EEF1G_P26641_266_AAAPAPEEEMDECEQALAAEPK (UniProt P26641)", "probe-labelled cysteine peptide fold change": -0.102},
      {"target": "EIF2D_P41214_301_ADLPLLTSTFLGSHMFSCCPEGR (UniProt P41214)", "probe-labelled cysteine peptide fold change": 0.129},
      {"target": "EIF3B_P55884_302_YWLEEAECR (UniProt P55884)", "probe-labelled cysteine peptide fold change": 0.426},
      {"target": "EHHADH_Q08426_566_YCPIPDVLCELGR (UniProt Q08426)", "probe-labelled cysteine peptide fold change": -0.0812},
      {"target": "EEF2_P13639_41_STLTDSLVCK (UniProt P13639)", "probe-labelled cysteine peptide fold change": -0.198},
      {"target": "EFTUD2_Q15029_639_SYPSLTTKVEESGEHVILGTGELYLDCVMHDLRK (UniProt Q15029)", "probe-labelled cysteine peptide fold change": -0.695},
      {"target": "EHMT2_Q96KQ7_1170_YFTCQCGSEK (UniProt Q96KQ7)", "probe-labelled cysteine peptide fold change": 0.49},
      {"target": "ECPAS_Q5VYK3_1183_ESSCLALNDLLR (UniProt Q5VYK3)", "probe-labelled cysteine peptide fold change": 0.0786},
      {"target": "EEF1A1_P68104_234_KDGNASGTTLLEALDCILPPTR (UniProt P68104)", "probe-labelled cysteine peptide fold change": -0.0163}
    ]}
  ]
}
